Article PMC12523187
Results are given in words; binding and its absence hold for the method and conditions named. Binding seen in cells or lysates may run through a third protein. Some entries that bind do so weakly or less than the wild type.

Chains of the proteins cited; added tags and fusions are not shown.
UniProt P45974: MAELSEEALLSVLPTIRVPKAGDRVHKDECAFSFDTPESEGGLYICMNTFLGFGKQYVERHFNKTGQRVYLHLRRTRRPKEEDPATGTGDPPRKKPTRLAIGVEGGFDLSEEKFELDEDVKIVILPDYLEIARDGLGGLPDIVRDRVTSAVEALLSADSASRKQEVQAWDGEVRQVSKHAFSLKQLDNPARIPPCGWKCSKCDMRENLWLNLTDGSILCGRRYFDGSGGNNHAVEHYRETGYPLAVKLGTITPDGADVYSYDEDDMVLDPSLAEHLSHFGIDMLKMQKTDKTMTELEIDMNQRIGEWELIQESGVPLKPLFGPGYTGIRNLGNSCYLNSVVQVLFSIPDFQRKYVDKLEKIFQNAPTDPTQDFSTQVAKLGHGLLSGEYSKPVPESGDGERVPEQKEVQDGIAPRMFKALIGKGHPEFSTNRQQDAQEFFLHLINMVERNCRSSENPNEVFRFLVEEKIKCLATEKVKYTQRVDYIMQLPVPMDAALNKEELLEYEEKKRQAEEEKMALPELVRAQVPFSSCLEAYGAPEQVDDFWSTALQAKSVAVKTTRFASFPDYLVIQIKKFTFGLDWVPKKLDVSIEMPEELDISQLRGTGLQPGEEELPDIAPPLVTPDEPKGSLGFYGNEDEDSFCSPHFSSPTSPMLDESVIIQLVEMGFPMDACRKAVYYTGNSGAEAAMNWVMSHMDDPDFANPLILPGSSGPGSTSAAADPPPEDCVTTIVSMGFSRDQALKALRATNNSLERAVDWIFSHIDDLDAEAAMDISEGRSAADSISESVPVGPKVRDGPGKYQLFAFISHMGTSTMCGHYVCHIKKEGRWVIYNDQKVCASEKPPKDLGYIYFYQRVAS

Biological target: Flag-USP5 (wild type) (UniProt P45974)
Assay: co-IP; MDA-MB-231/SK-BR-3 cells co-transfected with HA-GPX4 (or mutants) and Flag-USP5; precipitated with anti-Flag antibody

binding: binds
Substance: GPX4-Δ2 (aa 28-197), HA-tagged (from UniProt P36969 28-197) (domain or fragment)
